Data from article PMC7819943, “Rice protein-binding microarrays: a tool to detect cis-acting elements near promoter regions in rice”.
This is one part of the list.

Protein sequences, listed by entry. Tags and fused reporters are not part of them.
UniProt Q0JBA9, entry or part of it: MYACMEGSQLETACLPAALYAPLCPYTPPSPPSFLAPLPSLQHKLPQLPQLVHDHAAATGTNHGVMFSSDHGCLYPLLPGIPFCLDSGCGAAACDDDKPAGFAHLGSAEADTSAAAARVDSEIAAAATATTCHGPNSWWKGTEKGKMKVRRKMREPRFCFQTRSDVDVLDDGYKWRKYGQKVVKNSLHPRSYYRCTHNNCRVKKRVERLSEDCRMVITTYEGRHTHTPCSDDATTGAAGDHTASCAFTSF

The sequences below were run against OsWRKY34 (Oryza sativa, UniProt Q0JBA9 1-250) (assay: protein-binding microarray (RPBM); PBS, 2% BSA, 51.3 ng/ul salmon testes DNA, 50 uM zinc acetate, 200 nM TF, 25 C, 1 h; high values mean tight binding). Details: protein: recombinant; tags: N-terminal polyhistidine and DsRed monomer fusion (pET32a); label: CyDye5-dUTP incorporated in the synthesized complementary strand; 3' TTTTT single-stranded linker to array surface; dsDNA, one strand shown.
Procedure, shortened: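 An Axon 4000B scanner gave the binding signal as per-feature fluorescence intensity in arbitrary units. This followed washing of a custom Agilent array that had been incubated for 1 h at 25 °C with 200 nM protein in PBS, 2% BSA, salmon testes DNA and 50 µM zinc acetate. The proteins were transcription factors fused at the N-terminus to polyhistidine and DsRed, expressed in E. coli BL21-CodonPlus and purified on Ni–NTA.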

Sequence | binding signal
TTTTTATCAGTTCGTACCATCGAGAACTTTACATCTCAAACGGAGTCACCTAGTGCAG | 9020 fluorescence intensity (a.u.)
TCACCGACACTGCCAAACTAGAAATTGCTTTTCCATCTAACGGAGTCACCTAGTGCAG | 8220 fluorescence intensity (a.u.)
ACTACCCCAAACTTACAACTTTCCATCACATCATATGATACGGAGTCACCTAGTGCAG | 8710 fluorescence intensity (a.u.)
CAACCTACTCTTATCACTAACCACAGTCTTCTCCTAGCTTCGGAGTCACCTAGTGCAG | 8840 fluorescence intensity (a.u.)
CATCTCGTGCTAAGGGCCTATTCGGCTGCCGGAGTTGCAGCGGAGTCACCTAGTGCAG | 9100 fluorescence intensity (a.u.)
TCACATCTCATTTTATGTTGGTTTTTTATGGGACGGGAGGCGGAGTCACCTAGTGCAG | 10200 fluorescence intensity (a.u.)
CAGTATTCATCAGTAACCACTATACATTTTTCTTTACTAACGGAGTCACCTAGTGCAG | 8980 fluorescence intensity (a.u.)
ATTTTGCCCCTTGTTGATCACCACAGAAGAACATGTGCTACGGAGTCACCTAGTGCAG | 9790 fluorescence intensity (a.u.)
TCGCCGTTTAATTTCCTCACCTATCTCCATTTCTCGTCCACGGAGTCACCTAGTGCAG | 8900 fluorescence intensity (a.u.)
TCACCAACCATCTCATCTCTCTCACCATTTCATTTTATTTCGGAGTCACCTAGTGCAG | 9480 fluorescence intensity (a.u.)
TCCGCGGCGCAATCGTTTATATATATGTCTTGATCGATCCCGGAGTCACCTAGTGCAG | 8300 fluorescence intensity (a.u.)
TTTTTTTGCCGGCAGAGTTTTGGCTCCGAATTACATGCCCCGGAGTCACCTAGTGCAG | 8030 fluorescence intensity (a.u.)
CTTCACCTCACCTATCGGCGATCGCGCCCGAACCTACGCACGGAGTCACCTAGTGCAG | 8600 fluorescence intensity (a.u.)
TGGCATTTTTTTTTTTGGAATTGAGCACTTGTTAATGTCACGGAGTCACCTAGTGCAG | 8110 fluorescence intensity (a.u.)
GGGGATTTCTCATTTGGGTACTGTTTAGGTTCCAACTTTTCGGAGTCACCTAGTGCAG | 8370 fluorescence intensity (a.u.)
ATATCGGCTTTGCTCGCTGTTTCTTTCCTTTGTATTCTCGCGGAGTCACCTAGTGCAG | 12700 fluorescence intensity (a.u.)
ATAAATTCTTCTAATTATTTGGTTGCCCTATTTTGTTTTTCGGAGTCACCTAGTGCAG | 8600 fluorescence intensity (a.u.)
TTGGTTGCATGGCCACAATTTTATCCATATATCCATTCCACGGAGTCACCTAGTGCAG | 8480 fluorescence intensity (a.u.)
ACTATCGAGGAGACATTTACTTGTTGTTTGCGTCTCACTTCGGAGTCACCTAGTGCAG | 8500 fluorescence intensity (a.u.)
GCGGCGCGCGGTTGGGGAGGGGCGGGGACGCGTGAGAGCGCGGAGTCACCTAGTGCAG | 11600 fluorescence intensity (a.u.)
TATATATATGTGTGTTTTACGCCCTCTGTTTTATTTAAAACGGAGTCACCTAGTGCAG | 13100 fluorescence intensity (a.u.)

A run of entries from the list above, for reference:
Sequence | binding signal
CAGTATTCATCAGTAACCACTATACATTTTTCTTTACTAACGGAGTCACCTAGTGCAG | 8980 fluorescence intensity (a.u.)
ATTTTGCCCCTTGTTGATCACCACAGAAGAACATGTGCTACGGAGTCACCTAGTGCAG | 9790 fluorescence intensity (a.u.)

In a second layout: results already given.
Sequence	binding signal
CAACCTACTCTTATCACTAACCACAGTCTTCTCCTAGCTTCGGAGTCACCTAGTGCAG	8840 fluorescence intensity (a.u.)
CATCTCGTGCTAAGGGCCTATTCGGCTGCCGGAGTTGCAGCGGAGTCACCTAGTGCAG	9100 fluorescence intensity (a.u.)
TCACATCTCATTTTATGTTGGTTTTTTATGGGACGGGAGGCGGAGTCACCTAGTGCAG	10200 fluorescence intensity (a.u.)
GCGGCGCGCGGTTGGGGAGGGGCGGGGACGCGTGAGAGCGCGGAGTCACCTAGTGCAG	11600 fluorescence intensity (a.u.)

Following part.

Sequence | binding signal
AATACTTTCTGTATCTACCGCCATTACGTGATCACAGATTCGGAGTCACCTAGTGCAG | 8110 fluorescence intensity (a.u.)
CCACGAAGCGAGTTGAAATTTGGTTTGGTCTCCATCACAACGGAGTCACCTAGTGCAG | 8590 fluorescence intensity (a.u.)
TGCAGATACAGCCATATACCTTTGCTCAATGCCTATCCTACGGAGTCACCTAGTGCAG | 8660 fluorescence intensity (a.u.)
TCCGTCGTTCCGTGTTGGCCCACGCTGCCGCCGCGCGCCGCGGAGTCACCTAGTGCAG | 9390 fluorescence intensity (a.u.)
GTTTTATATTACAAATCGCTTTAACATTCTTTTTTAAAAACGGAGTCACCTAGTGCAG | 9950 fluorescence intensity (a.u.)
AATGTGGGAGAAGGGGAGGAGAGAGGGGAGGGGAGGGGACCGGAGTCACCTAGTGCAG | 16500 fluorescence intensity (a.u.)
AGCATCTTCGCTTGTGGTGCCGCACTGCCACCTACCCATCCGGAGTCACCTAGTGCAG | 8110 fluorescence intensity (a.u.)
TCTACTGTGTGTGTGTGTGTGTGTGTTCACTACTGGATAGCGGAGTCACCTAGTGCAG | 10000 fluorescence intensity (a.u.)
ATACCTCGTACATTTCTCAATCTCCTCACCTCCTTAGTCCCGGAGTCACCTAGTGCAG | 9960 fluorescence intensity (a.u.)
GATTTGTTTCCTACATGTTGCTTTGATTCATAGAAAAGAACGGAGTCACCTAGTGCAG | 9460 fluorescence intensity (a.u.)
TGTATGATGCTGTTGACTTTTTATCCAACGTTTGACCATCCGGAGTCACCTAGTGCAG | 21200 fluorescence intensity (a.u.)
CCTCTACCTCTAGATCTATATATTGTCTGCTATCAGCTTACGGAGTCACCTAGTGCAG | 8960 fluorescence intensity (a.u.)
AGCTCCGGTACTCGTCCTCTGCTTTGACCCGTCCACTAGACGGAGTCACCTAGTGCAG | 10300 fluorescence intensity (a.u.)
CATAATATATCTTGTCAAACTTTTTCATATTTTTATTTAACGGAGTCACCTAGTGCAG | 8192 fluorescence intensity (a.u.)
CACACCTTAGTACGTTATCTCTCTAATTGCTACATTTTAGCGGAGTCACCTAGTGCAG | 8610 fluorescence intensity (a.u.)
ACCCACACACAAACGCCTCTACGTACACTCTACCCACACCCGGAGTCACCTAGTGCAG | 8460 fluorescence intensity (a.u.)
TAGTGGGTGGGAGTGGGATAGGGCGGCCCAGAGGAGAATACGGAGTCACCTAGTGCAG | 9000 fluorescence intensity (a.u.)
CGCCGCGGCGTCCTCCACGCCGCCTGTTGTTCTTGCCTCCCGGAGTCACCTAGTGCAG | 8830 fluorescence intensity (a.u.)
CTGCTTTCTTTCCTGTGCTATGGATCGAATTTTCTCTTTACGGAGTCACCTAGTGCAG | 9410 fluorescence intensity (a.u.)
GCCCGCCATACGATTTTACCAGTGGTAAAAACCTGTGTCTCGGAGTCACCTAGTGCAG | 8580 fluorescence intensity (a.u.)
TGGATAGCAGTTCAATTCTCTTTTGGTTTATACCTTCCTACGGAGTCACCTAGTGCAG | 11000 fluorescence intensity (a.u.)

Sequence | binding signal
CCCGTGCTTGTCGCTTCACGTTGTTTTCGCCTGTTCAAGACGGAGTCACCTAGTGCAG | 10900 fluorescence intensity (a.u.)
TCCCATCCACAGTAACTTCGCTGTATCCCCATTCGCTGTCCGGAGTCACCTAGTGCAG | 11000 fluorescence intensity (a.u.)
AGCCCGATTTTCTGTTCATTTCCACGTTTGATTTGGTGCACGGAGTCACCTAGTGCAG | 8850 fluorescence intensity (a.u.)
ACGACCGTTCATTTCTTTCCCACTTCCCCGCGAGACCGCCCGGAGTCACCTAGTGCAG | 10500 fluorescence intensity (a.u.)
GGGACGGGCTTTTTCCGACCGTTTTATCGGTAACCATATTCGGAGTCACCTAGTGCAG | 8110 fluorescence intensity (a.u.)
AACTGGTTGGCATGTCCGCATCTAATCGACCTTAGGATCTCGGAGTCACCTAGTGCAG | 9100 fluorescence intensity (a.u.)
TTTTGGGTCGCCAGCCTCCTGTCGTATCCGATGCAGTATTCGGAGTCACCTAGTGCAG | 8290 fluorescence intensity (a.u.)
CCATTCCATACGTCCACATTCGTAGTTGTAGTATAGGTCTCGGAGTCACCTAGTGCAG | 8360 fluorescence intensity (a.u.)
GCTTGACGACACCATTCGGATTGTTCCATCACTTCCATACCGGAGTCACCTAGTGCAG | 9560 fluorescence intensity (a.u.)
GAAGCTAATCTCACATGTCCATTTGTTCTGATGAAGGTTACGGAGTCACCTAGTGCAG | 8390 fluorescence intensity (a.u.)
GAGTAACTCAACTGTAATCAACCATTCGTCCATATATTGCCGGAGTCACCTAGTGCAG | 8060 fluorescence intensity (a.u.)
AAGTTGGCAGGTCTGGTTGGCGTTACTTGGAGATAGGTTTCGGAGTCACCTAGTGCAG | 10600 fluorescence intensity (a.u.)
TCAGTTGTTTGTCATGAGGAAAATTCCAAATCTCCTCCAACGGAGTCACCTAGTGCAG | 8390 fluorescence intensity (a.u.)
TCCCTCGTGACCTCGTCTCGTCGGTTCGTCGCTCTCTCCGCGGAGTCACCTAGTGCAG | 8280 fluorescence intensity (a.u.)
TGCTGACTTTGTTTGACTATGTTAAAGCCCTATATATTAGCGGAGTCACCTAGTGCAG | 8130 fluorescence intensity (a.u.)
TCTCTCCTTTTCTTTTCTCTCACTTTCTTCCTCAGTCGGCCGGAGTCACCTAGTGCAG | 8170 fluorescence intensity (a.u.)
GAAGACTCCGCCTCCGCGCTATTCTCTCCTCCTCACGTCTCGGAGTCACCTAGTGCAG | 8060 fluorescence intensity (a.u.)
GCATCGTGGGGTGTGGGTGGCGGTTTTGGAGGGGAGAGGTCGGAGTCACCTAGTGCAG | 23200 fluorescence intensity (a.u.)
TGCTGATACCGAGACACCTCATCCCTTTCACCGCGGTATCCGGAGTCACCTAGTGCAG | 8910 fluorescence intensity (a.u.)
TCAAGGTTCCTTCGTCGCTTTTATTGCTTGATGATTCTCTCGGAGTCACCTAGTGCAG | 8780 fluorescence intensity (a.u.)
GTTCTCCATCCCAACGACCGCTCGCCGTTTTCGTCGTGGGCGGAGTCACCTAGTGCAG | 8150 fluorescence intensity (a.u.)

Sequence | binding signal
ATTTTTCCAGCGCCTTGCATGCCGTGTTCTTCTCGCCGCGCGGAGTCACCTAGTGCAG | 10600 fluorescence intensity (a.u.)
CGGGCTAGTTTTGTTTGGTTTCATACAGGGTGTTGGGAGGCGGAGTCACCTAGTGCAG | 8970 fluorescence intensity (a.u.)
AATACTCCCTCCGTCCCACTAAAAGTGTCGTTCTATGTCCCGGAGTCACCTAGTGCAG | 8420 fluorescence intensity (a.u.)
GCCTCATTACATTTATATATTGTTTCAAATACTGTAGCAACGGAGTCACCTAGTGCAG | 10800 fluorescence intensity (a.u.)
TATGAAATACGCACTCACCACCACTTTGTCATTTTGGCCACGGAGTCACCTAGTGCAG | 9740 fluorescence intensity (a.u.)
ATGTGTGTGGGATATTACGCTGCTAAAACTTTGTGTTTCTCGGAGTCACCTAGTGCAG | 11700 fluorescence intensity (a.u.)
GCGACGGCGGTGGTGGTGGGGTGTGGACGGCTAGGGTTTACGGAGTCACCTAGTGCAG | 13500 fluorescence intensity (a.u.)
TAATTACGAACTCTATTATTTTCCTCCGATAATGCCCGCACGGAGTCACCTAGTGCAG | 8150 fluorescence intensity (a.u.)
CTGCTGCTATGTTTTGATCTCGCAATTGCGTTTCGGGAGACGGAGTCACCTAGTGCAG | 11300 fluorescence intensity (a.u.)
CTTTTTTTCCCTTGCAGCTACAGTGCGAATAGCAGCGAATCGGAGTCACCTAGTGCAG | 8170 fluorescence intensity (a.u.)
CAACCCGCCACTCCACGAGTCTGGCGCTCTATCCTCCTTGCGGAGTCACCTAGTGCAG | 10200 fluorescence intensity (a.u.)
GCTCTCTTGGCCTTTGGTTATCATGGTACATGTTTCCCTACGGAGTCACCTAGTGCAG | 11600 fluorescence intensity (a.u.)
GTAGCGGCTGCGTTTCCTATTTTCCTTTTCTTTTTCTATTCGGAGTCACCTAGTGCAG | 9520 fluorescence intensity (a.u.)
CTACTCATGGAACCCACCGGTCAGATCAATCTTCTTCCTCCGGAGTCACCTAGTGCAG | 8290 fluorescence intensity (a.u.)
TTGTGCAGTCTCATCTACCTGTGACGTTTACAGTTTTGACCGGAGTCACCTAGTGCAG | 8840 fluorescence intensity (a.u.)
TCACATTTCTTAAACGGTTAAACGGTATGTTTCTTTTATACGGAGTCACCTAGTGCAG | 8920 fluorescence intensity (a.u.)
ACGTCATTGCCTACTTCCCATTTTCTTGTCCATAATGACACGGAGTCACCTAGTGCAG | 9050 fluorescence intensity (a.u.)
ATCCCAAAACCCTACGCTGCCTCTGCCGCCGCCTCGCCGCCGGAGTCACCTAGTGCAG | 8970 fluorescence intensity (a.u.)
ATTTTATTTGTCTGTTCGATAGTTTTCTTTGTTCACCTACCGGAGTCACCTAGTGCAG | 9640 fluorescence intensity (a.u.)
ACTCTAGCTCATGCGCTCCCAGCCGCTGCCGCCGCTCGCCCGGAGTCACCTAGTGCAG | 9270 fluorescence intensity (a.u.)
TCTGTTCCGCTTCAGTTTTTATTGAATCTATACTATGTTTCGGAGTCACCTAGTGCAG | 8220 fluorescence intensity (a.u.)
